These are yes or no findings as the source states them, for the method shown. Binding seen in cells or lysates may run through a third protein. Some binding calls cover weakened binding; strength is not graded here.

Protein sequences, listed by entry. Tags and fused reporters are not part of them. Lines headed by an entry give the natural chain unless they say otherwise; changes in a name come on top.
UniProt P19838: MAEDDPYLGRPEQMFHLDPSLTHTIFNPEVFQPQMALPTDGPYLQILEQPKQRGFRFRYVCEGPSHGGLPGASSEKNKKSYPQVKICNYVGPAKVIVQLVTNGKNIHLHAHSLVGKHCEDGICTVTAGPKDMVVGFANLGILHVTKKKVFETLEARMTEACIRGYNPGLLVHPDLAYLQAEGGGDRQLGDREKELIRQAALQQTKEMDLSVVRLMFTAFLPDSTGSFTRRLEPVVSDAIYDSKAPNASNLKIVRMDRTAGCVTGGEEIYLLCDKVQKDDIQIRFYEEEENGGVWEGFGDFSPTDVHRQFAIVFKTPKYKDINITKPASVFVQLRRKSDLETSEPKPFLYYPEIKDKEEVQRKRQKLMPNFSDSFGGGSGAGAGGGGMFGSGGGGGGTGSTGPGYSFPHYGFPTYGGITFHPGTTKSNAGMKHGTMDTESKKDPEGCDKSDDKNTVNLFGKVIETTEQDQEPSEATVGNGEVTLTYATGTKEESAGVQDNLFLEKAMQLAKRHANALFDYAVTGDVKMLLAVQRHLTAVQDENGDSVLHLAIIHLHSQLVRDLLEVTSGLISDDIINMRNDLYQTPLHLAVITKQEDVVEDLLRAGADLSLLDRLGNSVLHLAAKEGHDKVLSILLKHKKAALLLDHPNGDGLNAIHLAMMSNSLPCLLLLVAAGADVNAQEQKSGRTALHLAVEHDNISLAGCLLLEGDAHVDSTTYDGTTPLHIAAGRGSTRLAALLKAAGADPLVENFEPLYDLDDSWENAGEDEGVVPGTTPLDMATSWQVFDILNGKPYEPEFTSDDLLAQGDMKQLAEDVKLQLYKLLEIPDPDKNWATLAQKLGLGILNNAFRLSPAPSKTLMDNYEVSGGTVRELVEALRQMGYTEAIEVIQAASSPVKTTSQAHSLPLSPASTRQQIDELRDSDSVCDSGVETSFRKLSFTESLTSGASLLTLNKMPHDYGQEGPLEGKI
UniProt Q04206: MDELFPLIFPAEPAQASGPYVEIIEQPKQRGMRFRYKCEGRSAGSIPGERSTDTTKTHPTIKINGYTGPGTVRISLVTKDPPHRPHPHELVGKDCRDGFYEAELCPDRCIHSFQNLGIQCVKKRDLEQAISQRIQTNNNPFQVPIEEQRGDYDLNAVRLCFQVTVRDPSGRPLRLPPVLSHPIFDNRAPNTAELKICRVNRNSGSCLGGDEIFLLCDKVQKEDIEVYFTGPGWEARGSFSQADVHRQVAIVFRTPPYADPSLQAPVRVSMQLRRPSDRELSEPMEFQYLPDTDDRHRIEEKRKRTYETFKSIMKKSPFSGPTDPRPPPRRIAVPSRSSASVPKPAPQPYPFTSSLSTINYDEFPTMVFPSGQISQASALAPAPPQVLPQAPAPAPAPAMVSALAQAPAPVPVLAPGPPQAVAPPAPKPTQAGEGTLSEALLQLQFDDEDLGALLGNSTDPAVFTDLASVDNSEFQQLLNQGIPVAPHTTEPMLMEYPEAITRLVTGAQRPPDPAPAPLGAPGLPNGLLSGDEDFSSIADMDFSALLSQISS

Experiment in all cases: co-IP
Test [1] concerns the target V5-tagged p50 (UniProt P19838).
Test [2] concerns the target p50 (human (endogenous in HEK-293T and HeLa)) (UniProt P19838).
For test [3], the target named is FLAG-tagged RelA (human) (UniProt Q04206).

Regarding “FLAG-tagged RelA (from UniProt Q04206-1 1-551)”, the binding entry in test [1] was “binds”.

For “RelA (endogenous) (from UniProt Q04206-1 1-551)”, the binding result in test [2] is on record as “binds”.

Turning to p50 (from UniProt P19838 1-433), the binding entry in test [3] is on record as “binds”.

On to p105 (from UniProt P19838 1-968), for which, in test [3], the binding result is on record as “binds”.
